The source of these data is patent US12729225B2, “Non-canonical SWI/SNF complex and uses thereof” (Dana-Farber Cancer Institute, Inc., priority 2018, dated 2026).

To fix the notation:
B1: ALDH1L2 (protein)
chain: MLRRGSQALRRFSTGRVYFKNKLKLALIGQSLFGQEVYSHLRKEGHRVVGVFTVPDKDGKADPLALAAEKDGTPVFKLPKWRVKGKTIKEVAEAYRSVGAELNVLPFCTQFIPMDIIDSPKHGSIIYHPSILPRHRGASAINWTLIMGDKKAGFSVFWADDGLDTGPILLQRSCDVEPNDTVDALYNRFLFPEGIKAMVEAVQLIADGKAPRIPQPEEGATYEGIQKKENAEISWDQSAEVLHNWIRGHDKVPGAWTEINGQMVTFYGSTLLNSSVPPGEPLEIKGAKKPGLVTKNGLVLFGNDGKALTVRNLQFEDGKMIPASQYFSTGETSVVELTAEEVKVAETIKVIWAGILSNVPIIEDSTDFFKSGASSMDVARLVEEIRQKCGGLQLQNEDVYMATKFEGFIQKVVRKLRGEDQEVELVVDYISKEVNEIMVKMPYQCFINGQFTDADDGKTYDTINPTDGSTICKVSYASLADVDKAVAAAKDAFENGEWGRMNARERGRLMYRLADLLEENQEELATIEALDSGAVYTLALKTHIGMSVQTFRYFAGWCDKIQGSTIPINQARPNRNLTFTKKEPLGVCAIIIPWNYPLMMLAWKSAACLAAGNTLVLKPAQVTPLTALKFAELSVKAGFPKGVINIIPGSGGIAGQRLSEHPDIRKLGFTGSTPIGKQIMKSCAVSNLKKVSLELGGKSPLIIFNDCELDKAVRMGMGAVFFNKGENCIAAGRLFVEESIHDEFVTRVVEEIKKMKIGDPLDRSTDHGPQNHKAHLEKLLQYCETGVKEGATLVYGGRQVQRPGFFMEPTVFTDVEDYMYLAKEESFGPIMVISKFQNGDIDGVLQRANSTEYGLASGVFTRDINKAMYVSEKLEAGTVFINTYNKTDVAAPFGGVKQSGFGKDLGEEALNEYLKTKTVTLEY
B2: DNAJC10 (protein, UniProt Q8IXB1 33-793, looked up)
DnaJ homolog subfamily C …: DQDFYSLLGVSKTASSREIRQAFKKLALKLHPDKNPNNPNAHGDFLKINRAYEVLKDEDLRKKYDKYGEKGLEDNQGGQYESWNYYRYDFGIYDDDPEIITLERREFDAAVNSGELWFVNFYSPGCSHCHDLAPTWRDFAKEVDGLLRIGAVNCGDDRMLCRMKGVNSYPSLFIFRSGMAPVKYHGDRSKESLVSFAMQHVRSTVTELWTGNFVNSIQTAFAAGIGWLITFCSKGGDCLTSQTRLRLSGMLDGLVNVGWMDCATQDNLCKSLDITTSTTAYFPPGATLNNKEKNSILFLNSLDAKEIYLEVIHNLPDFELLSANTLEDRLAHHRWLLFFHFGKNENSNDPELKKLKTLLKNDHIQVGRFDCSSAPDICSNLYVFQPSLAVFKGQGTKEYEIHHGKKILYDILAFAKESVNSHVTTLGPQNFPANDKEPWLVDFFAPWCPPCRALLPELRRASNLLYGQLKFGTLDCTVHEGLCNMYNIQAYPTTVVFNQSNIHEYEGHHSAEQILEFIEDLMNPSVVSLTPTTFNELVTQRKHNEVWMVDFYSPWCHPCQVLMPEWKRMARTLTGLINVGSIDCQQYHSFCAQENVQRYPEIRFFPPKSNKAYHYHSYNGWNRDAYSLRIWGLGFLPQVSTDLTPQTFSEKVLQGKNHWVIDFYAPWCGPCQNFAPEFELLARMIKGKVKAGKVDCQAYAQTCQKAGIRAYPTVKFYFYERAKRNFQEEQINTRDAKAIAALISEKLETLRNQGKRNKDEL
B3: YME1L1 (protein, UniProt Q96TA2 1-773, looked up)
ATP-dependent zinc …: MFSLSSTVQPQVTVPLSHLINAFHTPKNTSVSLSGVSVSQNQHRDVVPEHEAPSSECMFSDFLTKLNIVSIGKGKIFEGYRSMFMEPAKRMKKSLDTTDNWHIRPEPFSLSIPPSLNLRDLGLSELKIGQIDQLVENLLPGFCKGKNISSHWHTSHVSAQSFFENKYGNLDIFSTLRSSCLYRHHSRALQSICSDLQYWPVFIQSRGFKTLKSRTRRLQSTSERLAETQNIAPSFVKGFLLRDRGSDVESLDKLMKTKNIPEAHQDAFKTGFAEGFLKAQALTQKTNDSLRRTRLILFVLLLFGIYGLLKNPFLSVRFRTTTGLDSAVDPVQMKNVTFEHVKGVEEAKQELQEVVEFLKNPQKFTILGGKLPKGILLVGPPGTGKTLLARAVAGEADVPFYYASGSEFDEMFVGVGASRIRNLFREAKANAPCVIFIDELDSVGGKRIESPMHPYSRQTINQLLAEMDGFKPNEGVIIIGATNFPEALDNALIRPGRFDMQVTVPRPDVKGRTEILKWYLNKIKFDQSVDPEIIARGTVGFSGAELENLVNQAALKAAVDGKEMVTMKELEFSKDKILMGPERRSVEIDNKNKTITAYHESGHAIIAYYTKDAMPINKATIMPRGPTLGHVSLLPENDRWNETRAQLLAQMDVSMGGRVAEELIFGTDHITTGASSDFDNATKIAKRMVTKFGMSEKLGVMTYSDTGKLSPETQSAIEQEIRILLRDSYERAKHILKTHAKEHKNLAEALLTYETLDAKEIQIVLEGKKLEVR
B4: SF1 (protein, UniProt Q15637 2-639, looked up)
Splicing factor 1: ATGANATPLDFPSKKRKRSRWNQDTMEQKTVIPGMPTVIPPGLTREQERAYIVQLQIEDLTRKLRTGDLGIPPNPEDRSPSPEPIYNSEGKRLNTREFRTRKKLEEERHNLITEMVALNPDFKPPADYKPPATRVSDKVMIPQDEYPEINFVGLLIGPRGNTLKNIEKECNAKIMIRGKGSVKEGKVGRKDGQMLPGEDEPLHALVTANTMENVKKAVEQIRNILKQGIETPEDQNDLRKMQLRELARLNGTLREDDNRILRPWQSSETRSITNTTVCTKCGGAGHIASDCKFQRPGDPQSAQDKARMDKEYLSLMAELGEAPVPASVGSTSGPATTPLASAPRPAAPANNPPPPSLMSTTQSRPPWMNSGPSESRPYHGMHGGGPGGPGGGPHSFPHPLPSLTGGHGGHPMQHNPNGPPPPWMQPPPPPMNQGPHPPGHHGPPPMDQYLGSTPVGSGVYRLHQGKGMMPPPPMGMMPPPPPPPSGQPPPPPSGPLPPWQQQQQQPPPPPPPSSSMASSTPLPWQQNTTTTTTSAGTGSIPPWQQQQAAAAASPGAPQMQGNPTMVPLPPGVQPPLPPGAPPPPPPPPPGSAGMMYAPPPPPPPPMDPSNFVTMMGMGVAGMPPFGMPPAPPPPPPQN
B5: TMEM209 (protein, UniProt Q96SK2 1-561, looked up)
Transmembrane protein 209: MMQGEAHPSASLIDRTIKMRKETEARKVVLAWGLLNVSMAGMIYTEMTGKLISSYYNVTYWPLWYIELALASLFSLNALFDFWRYFKYTVAPTSLVVSPGQQTLLGLKTAVVQTTPPHDLAATQIPPAPPSPSIQGQSVLSYSPSRSPSTSPKFTTSCMTGYSPQLQGLSSGGSGSYSPGVTYSPVSGYNKLASFSPSPPSPYPTTVGPVESSGLRSRYRSSPTVYNSPTDKEDYMTDLRTLDTFLRSEEEKQHRVKLGSPDSTSPSSSPTFWNYSRSMGDYAQTLKKFQYQLACRSQAPCANKDEADLSSKQAAEEVWARVAMNRQLLDHMDSWTAKFRNWINETILVPLVQEIESVSTQMRRMGCPELQIGEASITSLKQAALVKAPLIPTLNTIVQYLDLTPNQEYLFERIKELSQGGCMSSFRWNRGGDFKGRKWDTDLPTDSAIIMHVFCTYLDSRLPPHPKYPDGKTFTSQHFVQTPNKPDVTNENVFCIYQSAINPPHYELIYQRHVYNLPKGRNNMFHTLLMFLYIIKTKESGMLGRVNLGLSGVNILWIFGE
B6: NKAP (protein, UniProt Q8N5F7 1-415, looked up)
NF-kappa-B-activating protein: MAPVSGSRSPDREASGSGGRRRSSSKSPKPSKSARSPRGRRSRSHSCSRSGDRNGLTHQLGGLSQGSRNQSYRSRSRSRSRERPSAPRGIPFASASSSVYYGSYSRPYGSDKPWPSLLDKEREESLRQKRLSERERIGELGAPEVWGLSPKNPEPDSDEHTPVEDEEPKKSTTSASTSEEEKKKKSSRSKERSKKRRKKKSSKRKHKKYSEDSDSDSDSETDSSDEDNKRRAKKAKKKEKKKKHRSKKYKKKRSKKSRKESSDSSSKESQEEFLENPWKDRTKAEEPSDLIGPEAPKTLTSQDDKPLNYGHALLPGEGAAMAEYVKAGKRIPRRGEIGLTSEEIASFECSGYVMSGSRHRRMEAVRLRKENQIYSADEKRALASFNQEERRKRENKILASFREMVYRKTKGKDDK
B7: CCT8 (protein, UniProt P50990 2-548, looked up)
T-complex protein 1 subunit …: ALHVPKAPGFAQMLKEGAKHFSGLEEAVYRNIQACKELAQTTRTAYGPNGMNKMVINHLEKLFVTNDAATILRELEVQHPAAKMIVMASHMQEQEVGDGTNFVLVFAGALLELAEELLRIGLSVSEVIEGYEIACRKAHEILPNLVCCSAKNLRDIDEVSSLLRTSIMSKQYGNEVFLAKLIAQACVSIFPDSGHFNVDNIRVCKILGSGISSSSVLHGMVFKKETEGDVTSVKDAKIAVYSCPFDGMITETKGTVLIKTAEELMNFSKGEENLMDAQVKAIADTGANVVVTGGKVADMALHYANKYNIMLVRLNSKWDLRRLCKTVGATALPRLTPPVLEEMGHCDSVYLSEVGDTQVVVFKHEKEDGAISTIVLRGSTDNLMDDIERAVDDGVNTFKVLTRDKRLVPGGGATEIELAKQITSYGETCPGLEQYAIKKFAEAFEAIPRALAENSGVKANEVISKLYAVHQEGNKNVGLDIEAEVPAVKDMLEAGILDTYLGKYWAIKLATNAAVTVLRVDQIIMAKPAGGPKPPSGKKDWDDDQND
B8: CENPV (protein, UniProt Q7Z7K6 1-275, looked up)
Centromere protein V: MRRSRSSAAAKLRGQKRSGASGASAAPAASAAAALAPSATRTRRSASQAGSKSQAVEKPPSEKPRLRRSSPRAQEEGPGEPPPPELALLPPPPPPPPTPATPTSSASNLDLGEQRERWETFQKRQKLTSEGAAKLLLDTFEYQGLVKHTGGCHCGAVRFEVWASADLHIFDCNCSICKKKQNRHFIVPASRFKLLKGAEHITTYTFNTHKAQHTFCKRCGVQSFYTPRSNPGGFGIAPHCLDEGTVRSMVTEEFNGSDWEKAMKEHKTIKNMSKE
B9: DDX56 (protein, UniProt Q9NY93 1-547, looked up)
Probable ATP-dependent RNA …: MEDSEALGFEHMGLDPRLLQAVTDLGWSRPTLIQEKAIPLALEGKDLLARARTGSGKTAAYAIPMLQLLLHRKATGPVVEQAVRGLVLVPTKELARQAQSMIQQLATYCARDVRVANVSAAEDSVSQRAVLMEKPDVVVGTPSRILSHLQQDSLKLRDSLELLVVDEADLLFSFGFEEELKSLLCHLPRIYQAFLMSATFNEDVQALKELILHNPVTLKLQESQLPGPDQLQQFQVVCETEEDKFLLLYALLKLSLIRGKSLLFVNTLERSYRLRLFLEQFSIPTCVLNGELPLRSRCHIISQFNQGFYDCVIATDAEVLGAPVKGKRRGRGPKGDKASDPEAGVARGIDFHHVSAVLNFDLPPTPEAYIHRAGRTARANNPGIVLTFVLPTEQFHLGKIEELLSGENRGPILLPYQFRMEEIEGFRYRCRDAMRSVTKQAIREARLKEIKEELLHSEKLKTYFEDNPRDLQLLRHDLPLHPAVVKPHLGHVPDYLVPPALRGLVRPHKKRKKLSSSCRKAKRAKSQNPLRSFKHKGKKFRPTAKPS

The first data set has as its system mSWI/SNF complexes. Nature of the data set: mSWI/SNF complex purification with HA-tagged baits and mass spectrometry (peptide counts). The arrangement: species or system human. As to conditions: 293_HA-BRD7 bait purification, mass spectrometry; total peptides per co-purified protein.
Molecule B1 came in with a Total of 2.
On the same count and under the same terms, with B2 the figure was 2.
On the same count and under the same terms, with B3 the figure was 2; with B4, 2; with B5, 2.
Consider B6, for which the Total is 2.
The same measure, in the same setting: with B7 the figure was 2; with B8, 2.
The molecule B9 came in with a Total of 2.

Still in this data set, the particulars now being: 293_HA-BRD7 bait purification, mass spectrometry; unique peptides per co-purified protein.
The molecule B1 came in with a Unique of 2.
On the same count and under the same terms, with B2 the figure was 2.
Same read-out and setting: with B3 the figure was 2; with B4, 2; with B5, 2.
Same read-out and setting: with B6 the figure was 2; with B7, 2.
B8: the Unique is on record as 2.
Take B9: the Unique came to 2.
